Results: the supplement of paper PMC8166895
Where “and” joins values, the source holds several entries; their conditions need not be identical. Equal values may be shown once. Where a name gives a salt, the structure may show the parent alone. The list shows a part of the results. Most entries show no effect beyond the scatter of the controls.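 A single-replicate pilot screen of approved drugs and clinical or known-target compounds measured melting temperature via differential scanning fluorimetry. Top stabilizing hits raised the melting point by 2 °C or more; negative shifts indicate destabilization.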

system: SARS-CoV-2 main protease (Mpro, nsp5); assay: thermal shift ΔTm of Mpro relative to plate average Tm; higher = stronger thermal stabilization of Mpro (binding); conditions: 10 µM; protein concentration 1 µM

| SMILES | thermal shift ΔTm of Mpro |
| --- | --- |
| O=C1CSc2ccccc2N1Cc1cccc(C(F)(F)F)c1 | -0.0225 °C |
| C[C@H](Nc1ncnc2nc[nH]c12)c1cc2cccc(Cl)c2c(=O)n1-c1ccccc1 | 1.53 °C |
| CCN1CCN(Cc2ccc(NC(=O)c3ccc(C)c(NC(=O)c4cncc(-c5cccs5)c4)c3)cc2C(F)(F)F)CC1 | 0.112 °C |
| O=[N+]([O-])c1ccc(O)c2ncccc12 [Nitroxoline] | 0.34 °C |
| N#CC[C@H](C1CCCC1)n1cc(-c2ncnc3[nH]ccc23)cn1 | -0.0821 °C and -0.0714 °C and 0.138 °C |
| COc1cccc(NCC(F)Cn2c3ccc(Br)cc3c3cc(Br)ccc32)c1 (configuration not stated) | 0.413 °C |
| CCCc1nn(C)c2c(=O)[nH]c(-c3cc(S(=O)(=O)N4CCN(C)CC4)ccc3OCC)nc12 [Sildenafil Citrate] | 0.103 °C |
| CN(C[C@@H]1COCCO1)S(=O)(=O)Nc1ccc2ccc3ncc(-c4cnn(C)c4)cc3c(=O)c2c1 | 0.0216 °C |
| NNC(=O)c1ccncc1.Nc1ccc(C(=O)O)c(O)c1 [Pasiniazid] | -0.116 °C |
| O=C(CSc1nc2c(c(=O)n1-c1ccccc1)SCC2)Nc1ccc(-c2ccccc2)cn1 | -0.148 °C |
| C[C@@H]1CN(c2c(F)c(F)c3c(=O)c(C(=O)O)cn(C4CC4)c3c2F)C[C@H](C)N1 [Orbifloxacin] | 0.255 °C |
| CCNC1(C(N)=O)CCN(c2ncnc3c2nc(-c2ccccc2Cl)n3-c2ccc(Cl)cc2)CC1 [Otenabant hydrochloride] | 0.0512 °C |
| CCOC(=O)CC(=O)N1CCSC1COc1ccccc1OC (configuration not stated) [Moguisteine] | -0.00904 °C |
| CNCc1ccc(C)c(NC(=O)c2ccc(Nc3nc(-c4ccccc4)c4ccccc4n3)cc2)c1 | -0.0368 °C |
| CCCc1cc2c(N3CCN(C4=NCC(C)(C)S4)CC3)ncnc2s1 [MI-2 (Menin-MLL Inhibitor)] | 0.0684 °C |
| CCCCN1CCCC[C@H]1C(=O)Nc1c(C)cccc1C [Levobupivacaine] | 0.016 °C |
| CCCCN1CCCC[C@H]1C(=O)Nc1c(C)cccc1C [Levobupivacaine HCl] | 0.03 °C |
| O=C1Nc2ccc(Cl)cc2[C@@](C#CC2CC2)(C(F)(F)F)O1 [Efavirenz] | -0.267 °C |
| Nc1ccc(C(=O)O)c(O)c1 [Aminopar] | -0.0567 °C |
| Nc1ccc(C(=O)O)c(O)c1 [Sodium 4-aminosalicylate dihydrate] | 0.196 °C |
| Nc1ccc(C(=O)O)c(O)c1 [Sodium 4-Aminosalicylate] | 0.383 °C |

In another format: results already given
SMILES	thermal shift ΔTm of Mpro
O=C1CSc2ccccc2N1Cc1cccc(C(F)(F)F)c1	-0.0225 °C
CCN1CCN(Cc2ccc(NC(=O)c3ccc(C)c(NC(=O)c4cncc(-c5cccs5)c4)c3)cc2C(F)(F)F)CC1	0.112 °C
C[C@@H]1CN(c2c(F)c(F)c3c(=O)c(C(=O)O)cn(C4CC4)c3c2F)C[C@H](C)N1 [Orbifloxacin]	0.255 °C
CCOC(=O)CC(=O)N1CCSC1COc1ccccc1OC (configuration not stated) [Moguisteine]	-0.00904 °C
CCCc1cc2c(N3CCN(C4=NCC(C)(C)S4)CC3)ncnc2s1 [MI-2 (Menin-MLL Inhibitor)]	0.0684 °C

(next part)

| SMILES | thermal shift ΔTm of Mpro |
| --- | --- |
| O=C(O)C1(c2ccc(-c3ccc(Cl)c(Cl)c3)c(F)c2)CC1 | -0.201 °C |
| COc1cc(CCc2cc(NC(=O)c3ccc(N4CC(C)NC(C)C4)cc3)n[nH]2)cc(OC)c1 (configuration not stated) | 0.0487 °C |
| O=C(O)Cn1nnc(-c2cc(N3CCC(Oc4cc(F)ccc4Br)CC3)no2)n1 | 0.102 °C |
| O=C(O)c1ccccc1Nc1cccc(C(F)(F)F)c1 [Flufenamic acid] | -0.0229 °C |
| c1ccc(-c2nn3c(c2-c2ccnc4cc(OCCN5CCOCC5)ccc24)CCC3)nc1 | 0.00241 °C |
| CN1CCCCC1Cn1cc(C(=O)c2cc([N+](=O)[O-])ccc2I)c2ccccc21 (configuration not stated) | -0.0989 °C |
| O=C1O[C@H]([C@@H](O)CO)C(O)=C1O [Vitamin C] | 0.0649 °C |
| Clc1ccc(C(c2ccccc2Cl)C(Cl)Cl)cc1 (configuration not stated) [Mitotane] | -0.0769 °C |
| c1ccc(CNc2nc(N3CCOc4ccccc43)nc3c2CCCC3)cc1 | 0.15 °C |
| Cc1cccc(C)c1OCC(=O)N[C@@H](Cc1ccccc1)[C@@H](O)C[C@H](Cc1ccccc1)NC(=O)[C@H](C(C)C)N1CCCNC1=O [Lopinavir] | -0.174 °C |
| O=C(O)C(=O)c1cn(Cc2ccccc2)c2ccc(-c3ccc(OC(F)(F)F)cc3)cc12 [Tiplaxtinin] | -0.14 °C |
| CCOC(=O)c1csc(Nc2ccc(Cl)cc2)n1 | 0.13 °C |
| Nc1ccc(/N=N/c2ccccc2)c(N)n1 [Phenazopyridine HCl] | -0.129 °C |
| CCC(=O)O[C@]1(C(=O)SCF)[C@H](C)C[C@H]2[C@@H]3C[C@H](F)C4=CC(=O)C=C[C@]4(C)[C@@]3(F)[C@@H](O)C[C@@]21C [Fluticasone propionate] | 0.149 °C |
| O=c1ccc2cc(O[C@@H]3O[C@H](CO)[C@@H](O)[C@H](O)[C@H]3O)c(O)cc2o1 [Esculin] | 0.241 °C |
| O=C(Nc1ccc(CN2CCOCC2)cc1)c1ccc(-c2cccc(Cl)c2)o1 | -0.113 °C |
| CN1CCC(=C2c3ccccc3CCn3c(C=O)cnc32)CC1 [Alcaftadine] | -0.247 °C |
| OCCN1CCN(CC/C=C2/c3ccccc3Sc3ccc(Cl)cc32)CC1 [Zuclopenthixol] | -0.287 °C |
| Cc1[nH]nc2ccc(-c3cncc(OC[C@@H](N)Cc4ccccc4)c3)cc12 | -0.00124 °C and 0.031 °C |
| C/C=C(/C)C(=O)O[C@H]1c2cc3c(c4c2[C@@]2(CO4)C(=O)C(OC)=C(OC)C=C2C[C@@H](C)[C@H]1C)OCO3 [Heteroclitin D] | -0.0556 °C |
| Cc1cn(-c2cc(NC(=O)c3ccc(C)c(Nc4nccc(-c5cnccn5)n4)c3)cc(C(F)(F)F)c2)cn1 [Radotinib] | 0.13 °C |

| SMILES | thermal shift ΔTm of Mpro |
| --- | --- |
| CC(C)[C@H](O)C(=O)N[C@@H](C)C(=O)N[C@@H]1C(=O)N(C)CCc2ccccc21 | -0.0855 °C |
| O=CN1CC/C(=C/c2ccc3c(c2)OCO3)C1=O | -0.136 °C |
| CC(C)c1noc(N2CCC(COc3ccc(-c4ccc(S(C)(=O)=O)cc4)nc3)CC2)n1 | -0.176 °C |
| O=C(NC1CCNCC1)c1n[nH]cc1NC(=O)c1c(Cl)cccc1Cl | -0.0418 °C and 0.633 °C |
| COc1ccc(CC2NCCc3cc(OC)c(OC)cc32)cc1OC (configuration not stated) [Tetrahydropapaverine HCl] | -0.0441 °C |
| O=C(/C=C/c1ccc(O)c(O)c1/C=C/c1ccc(O)c(O)c1)O[C@H](Cc1ccc(O)c(O)c1)C(=O)O [Salvianolic acid A] | -0.00928 °C |
| CN(C)[C@@H](CCOc1cccc2ccccc12)c1ccccc1 [Dapoxetine HCl] | 0.0445 °C |
| CCCC(CCC)C(=O)O [Divalproex Sodium] | -0.0936 °C |
| CCCC(CCC)C(=O)O [Valproic acid sodium salt (Sodium valproate)] | -0.0678 °C |
| CN(C)CCCC1(c2ccc(F)cc2)OCc2cc(C#N)ccc21 (configuration not stated) [Citalopram HBr] | 0.00563 °C |
| Cc1onc(-c2ccccc2)c1C(=O)N[C@@H]1C(=O)N2[C@@H]1SC(C)(C)[C@@H]2C(=O)O [Oxacillin sodium] | 0.129 °C |
| COc1ccccc1N1CCN(CCN2C(=O)CC3(CCCC3)CC2=O)CC1 | -0.142 °C |
| O=C(Nc1ccc(Cl)cc1)c1cc(Br)ccc1O [Salifungin] | 0.0827 °C |
| CC(C)CCNc1ncccc1C(=O)N1CCN(Cc2ccccc2)CC1 | -0.0622 °C |
| OCC(O)CN1CCN(c2ccccc2)CC1 (configuration not stated) [Dropropizine] | -0.15 °C |
| N=C1S/C(=C\c2ccc(-c3ccc4c(c3)C(=O)NC4=O)o2)C(=O)N1c1ccc(Br)cc1 [Bioymifi] | 0.242 °C |
| CC1=C(CSC(=S)N2CCCCC2)C(=O)c2ccccc2C1=O [PKM2 inhibitor] | 0.0379 °C |
| COc1cc(N)c(Cl)cc1C(=O)NC1CCN(CCCOc2ccc(F)cc2)CC1OC (configuration not stated) [Cisapride] | 0.129 °C |
| CN(C)CCC(c1ccc(Cl)cc1)c1ccccn1 (configuration not stated) [Chlorpheniramine Maleate] | 0.0445 °C |
| COc1cccc(OCCCN)c1-c1cc(Nc2cnc(C#N)cn2)n[nH]1 [Prexasertib dihydrochloride] | -0.11 °C |
| Fc1ccc(-n2cc(CCCCN3CCC4(CC3)OCc3ccccc34)c3ccccc32)cc1 [Siramesine hydrochloride] | 0.022 °C |

| SMILES | thermal shift ΔTm of Mpro |
| --- | --- |
| CC(C)[C@H](NC(=O)OCC1c2ccccc2-c2ccccc21)C(=O)N[C@@H](C)C(=O)Nc1ccc(CO)cc1 | -0.0827 °C |
| CC(C)(C)c1cc(/C=C(\C#N)C(N)=S)cc(C(C)(C)C)c1O [Tyrphostin AG 879] | 0.963 °C |
| CCC(=O)NCC[C@@H]1CCc2ccc3c(c21)CCO3 [Ramelteon] | 0.192 °C |
| COC1=CC(=O)C[C@@H](C)[C@]12Oc1c(Cl)c(OC)cc(OC)c1C2=O [Griseofulvin] | 0.152 °C |
| O=S(=O)(NCCNC/C=C/c1ccc(Br)cc1)c1cccc2cnccc12 | -0.179 °C |
| O[C@@H](COc1cccc2ncccc12)CN1CCN(C2c3ccccc3[C@@H]3[C@H](c4ccccc42)C3(F)F)CC1 (some centres not stated) | -0.0326 °C |
| C[S+](CC[C@H](N)C(=O)O)C[C@H]1O[C@@H](n2cnc3c(N)ncnc32)[C@H](O)[C@@H]1O (stereo partly drawn) [S-(5'-Adenosyl)-L-methionine tosylate] | 0.28 °C |
| NS(=O)(=O)NCCNc1nonc1/C(=N/O)Nc1ccc(F)c(Br)c1 | 0.155 °C |
| COc1ccc(-c2coc3cc(O)cc(O)c3c2=O)cc1 [Biochanin A] | 0.283 °C |
| COC(=O)Nc1nc2cc(C(=O)c3ccc(F)cc3)ccc2[nH]1 [Flubendazole] | 0.0164 °C |
| Cc1ccc(-n2[nH]c(C)c(N=Nc3cccc(-c4cccc(C(=O)O)c4)c3O)c2=O)cc1C [Eltrombopag] | 0.0233 °C |
| Cc1ccc(-n2[nH]c(C)c(N=Nc3cccc(-c4cccc(C(=O)O)c4)c3O)c2=O)cc1C [Eltrombopag Olamine] | -0.0249 °C |
| COc1cc2ncnc(Nc3cccc(O)c3)c2cc1OC | 0.00426 °C |
| Cc1c(-c2ccc3c(c2)CN(C2CC2)C3=O)nnn1-c1cccnc1F | -0.107 °C |
| O=C(O[C@@H]1C[C@@H]2C[C@H]3C[C@H](C1)N2CC3=O)c1c[nH]c2ccccc12 [Dolasetron] | 0.0564 °C |
| COc1ccc2cc1Oc1ccc(cc1)C[C@H]1c3c(cc4c(c3Oc3cc5c(cc3OC)CCN(C)[C@@H]5C2)OCO4)CCN1C [Cepharanthine] | -0.258 °C |
| Nc1ccc(F)cc1NC(=O)c1ccc(CNC(=O)/C=C/c2cccnc2)cc1 [Chidamide] | 0.0325 °C |
| NC1=N[C@@]2(c3cc(NC(=O)c4ccc(F)cn4)ccc3F)COC[C@H]2CS1 | -0.0366 °C |
| Cn1c(=O)c2[nH]c(Br)nc2n(C)c1=O [Pamabrom] | 0.224 °C |
